# Measurements published in US5411942A (Carlbiotech Ltd. A/S, priority 1989, dated 1995).
# Some peptides are written in HELM: one residue between dots, names in brackets for other building blocks, links after the first $.
# Experiment: general procedure: solution-phase peptide synthesis; DCC/HOSu; CPD-Y enzymatic coupling
# Conditions: acetate (HAc)
Substance,final HPLC purity (coupling step),step yield (coupling step) [%],final HPLC purity (whole synthesis),step yield (late stage modification step) [%]
"HAc,H-AsnGlyGlyValCys(Acm)/NH2 (NGGVC; Cys(Acm); C-terminal amide; acetate salt; printed: Asn-Gly-Gly-Val-Cys)",at least 95% pure,70,,
BocAsnGlyGlyValOBzl,,70,,
PEPTIDE1{N.L.G.V.[Cys(Acm)].[am]}$$$$V2.0,,33,more than 95% pure,
PEPTIDE1{N.A.G.V.[Cys(Acm)].[am]}$$$$V2.0,,,mores than 95% pure,
"HCl, H-AsnGlyGlyValOBzl",,,,95
